This passage reports survivor count and T/C results from PubChem BioAssay AID248 (DTP/NCI, 2004).

The subject of this assay is L1210 leukemia ip in BDF1 mice, survival T/C. In words: NCI In Vivo Anticancer Drug Screen. Data for tumor model L1210 Leukemia (intraperitoneal) in B6D2F1 (BDF1) mice. Particulars: T/C endpoint: mean survival time, higher T/C = longer survival.
Setting [1] is: dose: 200.0 mg/kg/injection, schedule: Q01DX009 (ip), vehicle: saline.
Setting [2] is: dose: 400.0 mg/kg/injection, schedule: Q04DX003 (ip), vehicle: saline.
The mark [3] stands for this setting: dose: 400.0 mg/kg/injection, schedule: Q01DX001 (ip), vehicle: saline.
The mark [4] stands for this setting: dose: 200.0 mg/kg/injection, schedule: Q01DX009 (ip), vehicle: Klucel (hydroxypropylcellulose) (HPC).
[5] abbreviates: dose: 400.0 mg/kg/injection, schedule: Q01DX009 (ip), vehicle: Klucel (hydroxypropylcellulose) (HPC).
The mark [6] stands for this setting: dose: 400.0 mg/kg/injection, schedule: Q04DX003 (ip), vehicle: saline with Tween-80.
The mark [7] stands for this setting: dose: 300.0 mg/kg/injection, schedule: Q01DX001 (ip), vehicle: saline.
Setting [8] is: dose: 100.0 mg/kg/injection, schedule: Q04DX002 (ip), vehicle: Klucel (hydroxypropylcellulose) (HPC).
[9] abbreviates: dose: 400.0 mg/kg/injection, schedule: Q04DX003 (ip), vehicle: saline sonified.
Setting [10] is: dose: 200.0 mg/kg/injection, schedule: Q01DX001 (ip), vehicle: Klucel (hydroxypropylcellulose) (HPC).
Setting [11] is: dose: 100.0 mg/kg/injection, schedule: Q01DX009 (ip), vehicle: saline.
The mark [12] stands for this setting: dose: 100.0 mg/kg/injection, schedule: Q01DX001 (ip), vehicle: saline.

The list does not hold the whole screen: it gathers tests that were run many times, whatever their T/C, doses with no T/C, and many T/C values between a quarter and a half above the control. Further doses and runs are listed elsewhere. T/C gives the treated animals as a percentage of the vehicle group. Some entries give survivors of the animals treated and no T/C: the source files T/C as zero there, which appears to mark a toxic dose or a test without result, not a measured value. Some doses without a T/C left all or most animals alive at the check, yet need not have been tolerated: survival well below the control is almost never listed, so the zero probably covers shortened survival too. Survivors were counted at the toxicity check, usually on the fifth day, unless a day is given; later deaths do not show. Schedule codes are those of the source, read here as Q, the interval in days (D) or hours (H), X, the number of doses. Some schedule codes hold Z or #, which are not explained here. Some structures stand for samples that the source files as different forms (salt, stereo form or complex); doses refer to the form tested. Where survival is the endpoint, the PubChem record calls one and a half times the control and up active, and a quarter to a half above the control has no call in these data; cut-offs in other NCI protocols can differ. Some T/C values are followed by the survivors on the day toxicity was checked, most often the fifth; without a count, all were alive then.

On to `O=P(NN1CCCCC1)(NN1CCCCC1)c1ccccc1`, for which the survivor count (dose: 400.0 mg/kg/injection, schedule: Q01DX009 (ip), vehicle: carboxymethylcellulose (CMC)) is 0 of 6.

As for `CCCCN(C(C)(C)C(SSSC(c1ccc(Cl)cc1)C(C)(C)N(CCCC)S(C)(=O)=O)c1ccc(Cl)cc1)S(C)(=O)=O` (centres undefined), the survivor count (dose: 400.0 mg/kg/injection, schedule: Q01DX009 (ip), vehicle: saline with Tween-80) is on record as 1 of 6. On to `COC1c2cnc(C)n2C=CN1C(C)=O` (centres undefined), for which the survivor count under setting [1] is 2 of 6 and the survivor count under setting [2] was 1 of 6. For `CCN(CC)CCCN(C)C(=O)C(O)(c1ccccc1)c1ccccc1`, the survivor count is 0 of 3 (dose: 200.0 mg/kg/injection, schedule: Q01DX001 (ip), vehicle: saline) and 0 of 3 under setting [3]. Consider `CN(C)c1ccc(N=Nc2ccncc2)cc1`, for which the survivor count under setting [4] was 3 of 6 and the survivor count under setting [5] is 1 of 6. With `Cc1ccc(C)c(N=C=O)c1`, the survivor count under setting [6] is listed as 1 of 6.

For the compound `CC1=N/C(=N\c2nc3ccccc3[nH]2)NC(=O)CC1`, under setting [7], the survivor count is listed as 2 of 6.

As to `C1=CC=CN(c2ccccc2)C=C1`, the survivor count under setting [5] was 3 of 6. As for `O=C1C=CC(=O)C2=C1C1c3ccccc3C2c2ccccc21`, for the setting “dose: 200.0 mg/kg/injection, schedule: Q04DX002 (ip), vehicle: saline with Tween-80”, the survivor count was 3 of 3.

Take `CN=C(N)NN`: the T/C (dose: 15.0 mg/kg/injection, schedule: Q01DX Z (ip), vehicle: methylcellulose (MC)) was 130 % of control. Besides, the survivor count is recorded as 2 of 6 (dose: 250.0 mg/kg/injection, schedule: Q01DX Z (oral), vehicle: methylcellulose (MC)); 3 of 6 (dose: 500.0 mg/kg/injection, schedule: Q01DX Z (oral), vehicle: methylcellulose (MC)); 3 of 6 (dose: 1000.0 mg/kg/injection, schedule: Q01DX Z (oral), vehicle: methylcellulose (MC)); 0 of 6 (dose: 2000.0 mg/kg/injection, schedule: Q01DX Z (oral), vehicle: methylcellulose (MC)). For `Cc1ccc(N=Nc2c(C)nn(C(N)=S)c2C)cc1`, where the note is “dose: 300.0 mg/kg/injection, schedule: Q01DX001 (ip), vehicle: other”, the survivor count was 0 of 6. Regarding `Cc1ccc(O)c(N=O)c1.[Cu+2]`, under setting [3], the survivor count is listed as 0 of 4. Regarding `CCC1SC(=S)N(C(=O)c2ccc([N+](=O)[O-])cc2)C1CC` (centres undefined), the survivor count under setting [8] is listed as 1 of 3. `O=[N+]([O-])c1nncs1`: the survivor count (dose: 100.0 mg/kg/injection, schedule: Q04DX003 (ip), vehicle: saline sonified) is recorded as 1 of 6; the survivor count (dose: 200.0 mg/kg/injection, schedule: Q04DX003 (ip), vehicle: saline sonified) was 0 of 6; the survivor count under setting [9] was 0 of 6. For `NC(N)=NCCCCCCN=C(N)N`, the survivor count (dose: 50.0 mg/kg/injection, schedule: Q01DX Z (oral), vehicle: saline) was 4 of 6; the survivor count (dose: 50.0 mg/kg/injection, schedule: Q04DX003 (ip), vehicle: saline with Tween-80) is on record as 1 of 6; the survivor count (dose: 100.0 mg/kg/injection, schedule: Q04DX003 (ip), vehicle: saline with Tween-80) is 0 of 6; the survivor count (dose: 200.0 mg/kg/injection, schedule: Q04DX003 (ip), vehicle: saline with Tween-80) is 0 of 6; the survivor count under setting [6] is on record as 0 of 6.

Regarding `COc1ccc(/C=N/n2c3ccccc3c3ccccc32)cc1OCCN(C)C`, the survivor count is reported as 3 of 6 (dose: 50.0 mg/kg/injection, schedule: Q01DX009 (ip), vehicle: Klucel (hydroxypropylcellulose) (HPC)); 4 of 4 (dose: 100.0 mg/kg/injection, schedule: Q04DX003 (ip), vehicle: Klucel (hydroxypropylcellulose) (HPC)); 0 of 4 (dose: 200.0 mg/kg/injection, schedule: Q04DX003 (ip), vehicle: Klucel (hydroxypropylcellulose) (HPC)); 4 of 4 (dose: 400.0 mg/kg/injection, schedule: Q04DX003 (ip), vehicle: Klucel (hydroxypropylcellulose) (HPC)). Turning to `CCc1cccc(CC)c1NC(=O)Nc1ccc(Br)cc1`, under setting [3], the survivor count is reported as 6 of 6. Still for that read-out and setting: in the case of `NN=O` it was 1 of 3. Consider `NC(=O)c1[nH]cnc1/N=N/N(CCCl)Cc1ccccc1`, for which the T/C reads like this: under setting [10], 140 % of control; (dose: 266.0 mg/kg/injection, schedule: Q01DX001 (ip), vehicle: Klucel (hydroxypropylcellulose) (HPC)) 139 % of control. In the case of `Cc1ccc2c(c1)CCCN2C`, the survivor count under setting [1] was 2 of 6 and the survivor count under setting [2] is listed as 0 of 6.

Regarding `COc1ccc(N)c(CC2c3ccccc3CCN2C)c1` (centres undefined), the survivor count by setting is: (dose: 200.0 mg/kg/injection, schedule: Q01DX001 (ip), vehicle: carboxymethylcellulose (CMC)) 0 of 4; (dose: 400.0 mg/kg/injection, schedule: Q01DX001 (ip), vehicle: carboxymethylcellulose (CMC)) 0 of 4.

As for `CCCn1cnc2c(=S)nc(N)[nH]c21`, the T/C is 148 % of control [5 of 6 alive] (dose: 7.5 mg/kg/injection, schedule: Q01DX Z (ip), vehicle: methylcellulose (MC)) and 134 % of control [5 of 6 alive] (dose: 11.0 mg/kg/injection, schedule: Q01DX Z (ip), vehicle: methylcellulose (MC)).

In the case of `CC(C)C(=O)NNCc1ccccc1`, the survivor count under setting [4] was 0 of 6. For the compound `NNC(=O)CNc1cccc(Cl)c1F`, the survivor count is, setting by setting: under setting [8], 2 of 3; (dose: 200.0 mg/kg/injection, schedule: Q04DX002 (ip), vehicle: Klucel (hydroxypropylcellulose) (HPC)) 0 of 3; (dose: 400.0 mg/kg/injection, schedule: Q04DX002 (ip), vehicle: Klucel (hydroxypropylcellulose) (HPC)) 0 of 3. `O=C(O)C1=CCC=CC1C(=O)O` (centres undefined): the survivor count under setting [2] was 2 of 6. Consider `CCN(CC)C(=O)/C=C/c1ccccc1`, for which the survivor count under setting [3] is reported as 2 of 4. On to `CN(C)CC/C=C1/c2ccccc2COc2ccccc21`, for which the survivor count is recorded as 0 of 6 under setting [11]; 0 of 4 (dose: 200.0 mg/kg/injection, schedule: Q04DX003 (ip), vehicle: saline); 0 of 4 under setting [2]. `COc1cc2c(c(OC)c1OC)-c1ccc(=O)c(N)cc1C(NC(C)=O)CC2` (centres undefined): the T/C (dose: 120.0 mg/kg/injection, schedule: Q01DX Z (ip), vehicle: carboxymethylcellulose (CMC)) is 125 % of control. Regarding `CCCCCCCC(=O)NOS(=O)(=O)O`, the survivor count is, setting by setting: under setting [12], 1 of 6; under setting [11], 0 of 6.

Consider `COc1cc([N+](=O)[O-])c2nc(/C=N/NC(N)=S)ccc2c1[N+](=O)[O-]`, for which the survivor count under setting [12] is listed as 6 of 6 and the survivor count under setting [3] was 6 of 6. In the case of `O=C(O)c1cn(C2CCCCC2)c(=O)[nH]c1=O`, the survivor count by setting is: (dose: 100.0 mg/kg/injection, schedule: Q01DX Z (ip), vehicle: methylcellulose (MC)) 4 of 6; (dose: 200.0 mg/kg/injection, schedule: Q01DX Z (ip), vehicle: methylcellulose (MC)) 4 of 6.

In the case of `CCN=C=NCCCN(C)C`, the survivor count (dose: 80.0 mg/kg/injection, schedule: Q01DX009 (ip), vehicle: saline) is on record as 2 of 6. On to `CCCCCCCCCCCCCCCC(=O)NCC[N+](CC)(CC)Cc1ccc(C[N+](CC)(CC)CCNC(=O)CCCCCCCCCCCCCCC)cc1`, for which the survivor count is, setting by setting: (dose: 150.0 mg/kg/injection, schedule: Q01DX001 (ip), vehicle: saline) 2 of 6; under setting [7], 0 of 6. Take `NC(N)=NCCc1ccc(Cl)cc1`: the survivor count (dose: 100.0 mg/kg/injection, schedule: Q01DX001 (ip), vehicle: Klucel (hydroxypropylcellulose) (HPC)) is reported as 1 of 6 and the survivor count under setting [10] is reported as 0 of 6. For the compound `NOCc1c(F)c(F)c(F)c(F)c1F`, under setting [9], the survivor count was 4 of 6.
